# Laboratory results published in PubChem BioAssay AID2013 (Sanford-Burnham Center for Chemical Genomics, 2009).
# Amino acid sequences for entries named in this document (tags omitted). A change or cut given only in a name is not applied to a line headed by its entry.
# UniProt Q9Y2T6: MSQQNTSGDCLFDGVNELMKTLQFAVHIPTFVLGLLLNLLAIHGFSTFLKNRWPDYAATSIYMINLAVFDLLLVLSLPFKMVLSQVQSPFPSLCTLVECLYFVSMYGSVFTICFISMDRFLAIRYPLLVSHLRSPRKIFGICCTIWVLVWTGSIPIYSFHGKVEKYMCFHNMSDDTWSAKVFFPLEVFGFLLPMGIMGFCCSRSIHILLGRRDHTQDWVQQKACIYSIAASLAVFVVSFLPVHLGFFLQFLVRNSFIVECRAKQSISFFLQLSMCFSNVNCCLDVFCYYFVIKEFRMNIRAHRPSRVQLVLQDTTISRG
# Among all 290,000 compounds or so, about 370 (0.13%) were called active. Inconclusive results, whose numbers are uncertain, are shown with a selection of clear calls.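 How the source made its calls: active means spots per cell inhibited over 60%, with over 100 cells counted and total cytoplasm intensity under 500,000; inconclusive means wells with under 100 cells, flagged as likely toxic; inactive means the rest.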 Residues, ends and D or L forms follow the SMILES beside them. *: point of attachment. Boc = CC(C)(C)OC(=O)*
# Target: G-protein coupled receptor 55 (Homo sapiens) (UniProt Q9Y2T6)
# Assay: inhibition of LPI-stimulated GPR55 beta-arrestin translocation – imaging, U2OS, beta-arrestin-GFP, LPI agonist, primary screen (AID 2013);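 further: U2OS cells stably carrying GPR55 and arrestin-GFP stimulated by 5 µM LPI near EC80; imaged beta-arrestin-GFP aggregate spots per cell after agonist stimulation; plate controls were LPI-stimulated DMSO wells for no effect and DMSO wells without LPI for full effect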
# Conditions: LPI antagonism, at 10 µM, hits give high values
row,SMILES,inhibition
1,COc1ccccc1NC(=O)Nc1ccnn1C1CCCCC1,inactive: 0.2%
2,CC(=O)/C=C(\C)Nc1ccc(-c2cnc(-c3ccccc3)o2)cc1,inconclusive: -147%
3,CCOc1ccc(CNC(=O)c2ccc(Sc3ccc(Cl)cc3)c(NC(C)=O)c2)cc1,inconclusive: 103%
4,CNC[C@H](CC1CCCCC1)NC[C@H](Cc1ccccc1)NCCC12CC3CC(CC(C3)C1)C2,inconclusive: 85%
5,C/C(=N/NC(=O)Cc1cccs1)c1ccco1,inconclusive: 103%
6,CCN1CCN(CCNC(=O)c2ccc3c(c2)N(Cc2ccc(F)cc2)C(=O)/C(=C/c2ccccc2)S3)CC1,active: 70.3%
7,Cc1ccc(Cl)cc1NC(=S)N(Cc1ccco1)C(C)c1cccs1 (stereo not given),inconclusive: 69.8%
8,CCCN1CNC(=S)N(c2ccccc2OC)C1,inactive: 10%
9,COc1cc(S(=O)(=O)N2CCN=C2c2ccccc2)c(OC)cc1Cl,inconclusive: 64.1%
10,Cc1ccc(C(C)C)c(OCC(O)CN2CCc3ccccc3C2)c1 (stereo not given),inactive: 2.1%
11,COc1cccc(C2C3CN(C)CC=C3C(C#N)=C(N)C2(C#N)C#N)c1OC (stereo not given),inconclusive: 85%
12,C=CS(=O)(=O)c1ccc(Oc2ccc(S(=O)(=O)C=C)cc2)cc1,active: 70.4%
13,Cc1[nH]n(-c2ccccc2)c(=O)c1/C=N/NC(=O)c1ccoc1C,inconclusive: -86.7%
14,NC(=O)c1ccc(NC(=O)CNCc2ccccc2Cl)cc1,inconclusive: 49.5%
15,CCc1ccc(NC(=O)CCC(=O)c2ccccc2)cc1,inconclusive: 31.9%
16,S=C(Sc1ccc(Cl)cc1)Sc1ccc(Cl)cc1,active: 91.8%
17,CN(C)c1ccc(/C=C/C(=O)c2c(O)c3ccccc3oc2=O)cc1,inconclusive: 38.5%
18,COc1ccc(Cl)cc1C(=O)NCCN(C)C,inactive: -0.9%
19,COc1ccc(CCn2c(S)nc3ccccc3c2=O)cc1,inconclusive: 76.1%
20,Fc1ccc(-c2csc(N3CCOCC3)n2)cc1,inactive: -10.5%
21,Clc1ccc(Cn2cccn2)cn1,inconclusive: 103%
22,CC(C)(C)OC(=O)N1CCCC1C(=O)NC(Cc1ccccc1)C(=O)O (stereo not drawn) (Boc-Pro-Phe-OH; configuration not given here),inconclusive: 103%
23,CN1CC=C2C(C#N)=C(N)C(C#N)(C#N)[C@H](c3cccc(Cl)c3)C2C1 (stereo not given in full),inconclusive: 87.9%
24,COc1ccc(/C=N/NC(=O)c2cc[n+]([O-])cc2)cc1O,inconclusive: -5.8%
25,O=C(c1cc(-c2ccccn2)nc2c(Cl)cccc12)N1CCN(S(=O)(=O)c2ccccc2)CC1,inconclusive: 103%

# 3 entries out of the list, sorted by heavy-atom count, smallest number first.
row,SMILES,inhibition
5,C/C(=N/NC(=O)Cc1cccs1)c1ccco1,inconclusive: 103%
24,COc1ccc(/C=N/NC(=O)c2cc[n+]([O-])cc2)cc1O,inconclusive: -5.8%
10,Cc1ccc(C(C)C)c(OCC(O)CN2CCc3ccccc3C2)c1 (stereo not given),inactive: 2.1%
